# Laboratory results taken from article doi:10.1101/2025.05.13.653717.
# By UniProt entry, the sequences of proteins in these tests, tags left out.
# UniProt P26040: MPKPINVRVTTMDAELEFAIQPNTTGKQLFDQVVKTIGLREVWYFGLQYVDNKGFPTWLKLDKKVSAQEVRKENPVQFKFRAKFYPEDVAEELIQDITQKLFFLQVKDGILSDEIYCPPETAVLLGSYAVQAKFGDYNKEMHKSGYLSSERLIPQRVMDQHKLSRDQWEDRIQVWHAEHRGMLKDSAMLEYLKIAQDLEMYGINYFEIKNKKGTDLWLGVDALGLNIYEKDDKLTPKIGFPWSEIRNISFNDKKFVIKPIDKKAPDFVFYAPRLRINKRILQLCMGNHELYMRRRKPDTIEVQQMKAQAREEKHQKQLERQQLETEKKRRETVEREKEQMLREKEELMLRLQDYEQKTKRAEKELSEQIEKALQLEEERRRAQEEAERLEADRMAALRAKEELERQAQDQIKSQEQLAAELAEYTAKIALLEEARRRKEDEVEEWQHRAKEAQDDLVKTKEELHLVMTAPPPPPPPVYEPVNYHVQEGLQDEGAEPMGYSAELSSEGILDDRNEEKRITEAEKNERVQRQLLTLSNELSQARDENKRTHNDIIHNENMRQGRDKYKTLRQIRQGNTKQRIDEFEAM
# No constants are given. Whether binding was seen depends on the method and setting. In cells and extracts the contact can be indirect. Some binding calls cover weakened binding; strength is not graded here.
# Target: T1, Phosphatase and Actin Regulator 4 (Phactr4) (mouse (endogenous in murine cells)) (UniProt Q501J7)
# T1 sequence: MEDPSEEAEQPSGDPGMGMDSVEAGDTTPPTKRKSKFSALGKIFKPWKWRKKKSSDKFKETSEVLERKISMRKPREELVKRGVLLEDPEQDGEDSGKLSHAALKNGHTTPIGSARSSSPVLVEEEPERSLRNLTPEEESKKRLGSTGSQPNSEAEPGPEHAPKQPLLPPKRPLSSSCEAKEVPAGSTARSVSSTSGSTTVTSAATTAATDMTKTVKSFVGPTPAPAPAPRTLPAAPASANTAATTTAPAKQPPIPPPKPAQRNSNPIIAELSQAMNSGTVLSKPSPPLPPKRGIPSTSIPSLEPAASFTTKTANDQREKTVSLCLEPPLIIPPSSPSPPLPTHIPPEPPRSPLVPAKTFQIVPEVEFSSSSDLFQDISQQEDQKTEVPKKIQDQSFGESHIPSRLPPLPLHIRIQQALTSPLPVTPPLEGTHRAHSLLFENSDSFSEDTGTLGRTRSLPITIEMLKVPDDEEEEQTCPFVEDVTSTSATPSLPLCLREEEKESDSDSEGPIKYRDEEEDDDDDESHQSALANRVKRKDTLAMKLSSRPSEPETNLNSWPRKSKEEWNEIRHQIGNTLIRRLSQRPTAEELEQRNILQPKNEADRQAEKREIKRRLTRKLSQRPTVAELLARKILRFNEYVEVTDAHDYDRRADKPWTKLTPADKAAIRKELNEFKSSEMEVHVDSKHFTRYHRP
# Experiment: proximity ligation; proximity ligation assay of ezrin and Phactr4 in cells, without and with Arp2/3 inhibition (proximity not affected)
substance,measurement,value
ezrin (from UniProt P26040 1-586),binding,binds
